Laboratory results: PubChem BioAssay AID2685 (National Center for Advancing Translational Sciences (NCATS), 2010)
The other results are listed elsewhere or left out. The main result of the screen is listed elsewhere. These columns were measured beside it and carry no call. Compounds called inactive in the main read-out are mostly missing here. Potencies come from curve fits of mixed quality, noted in brackets.

Assay: qHTS Assay for Lipid Storage Modulators in Drosophila S3 Cells;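 as to cell number change: cells counted by Cell Tracker Red CMTPX staining in the red channel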
Conditions: BODIPY lipid droplet fluorescence, 18-24 h; for cell number change: measured here: cell count max response, cells fed with added oleic acid
In short: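 Laser-scanning cytometry quantifies lipid droplet accumulation (500–530 nm total intensity; droplet/cell object ratio) in oleic acid-fed (400 uM added) Drosophila S3 cells treated with a concentration series. 20 uM Triacsin C defined 100% inhibition.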

[1] = measured here: lipid fluorescence (Fed channel) AC50, cells fed with added oleic acid
[2] = measured here: cell number channel AC50, cells fed with added oleic acid

Row | SMILES | cell number change [%] | AC50 [1] | AC50 [2]
1 | O=C(O)c1ccccc1CSc1nc2ccccc2[nH]1 | 11.7 | 1.16 µM [rising, single point] | –
2 | O=c1ccc(=O)n2n1CC(O)C2 | -6.14 | 0.461 µM [rising, full curve] | –
3 | Cc1oc(CC(C)C)cc1C(N)=O | -17.2 | 23.1 µM [falling, partial curve, poor fit] | –
4 | CC(C)CC(=O)N1CCN(S(=O)(=O)c2ccccc2)CC1 | – | – | 0.291 µM [rising, full curve, poor fit]
5 | O=C(COC(=O)c1ccc(Sc2ccccc2)c([N+](=O)[O-])c1)NC1CCCc2ccccc21 (stereo not drawn) | – | – | 0.58 µM [rising, single point]
6 | S=C(Nc1ccc(Oc2ccccc2)cc1)Nc1cccnc1 | -3.65 | – | –
7 | Cc1ccc(-c2nc(CN(Cc3c(C)nn(C)c3C)C(C)C)c(C)o2)o1 | 13.4 | 29.1 µM [rising, single point] | –
8 | C=C(C)COc1ccc2c(C)c(CCC(=O)NC3CC3)c(=O)oc2c1 | 17.2 | 29.1 µM [rising, single point] | –
9 | CCCC1=C(C(=O)OCC)C(c2ccc(N(C)C)cc2)n2ncnc2N1 (stereo not drawn) | -10.8 | 2.31 µM [rising, single point] | –
10 | CN(NC(N)=O)c1ncc(C(F)(F)F)cc1Cl | -82.3 | 29.1 µM [falling, single point] | 29.1 µM [falling, single point]
11 | CCCCc1ccc(-c2nc(N)n[nH]2)cc1 | -19 | 29.1 µM [falling, single point] | –
12 | O=C(Cc1ccccc1)Nc1ccc(NC(=O)c2cccs2)cc1Cl | 31.6 | 11.6 µM [rising, single point] | 9.2 µM [rising, partial curve, poor fit]
13 | CCOC(=O)N1CCN(CC(=O)Nc2c(C(=O)OC)[nH]c3cc(C)ccc23)CC1 | -15.1 | – | 0.00461 µM [falling, full curve, poor fit]
14 | Cc1ccc(S(=O)(=O)/N=C(/Nc2ccc(O)c(C(=O)O)c2)c2ccccc2)cc1 | -22.9 | 0.0164 µM [falling, full curve, poor fit] | –
15 | Oc1cc(-c2ccccc2)c2ccccc2c1 | -65.6 | 14.6 µM [falling, partial curve, poor fit] | 32.6 µM [falling, partial curve]
16 | Cc1cc(Cl)cc(Br)c1OCCCNCC(C)O (stereo not drawn) | 131 | – | 23.1 µM [rising, partial curve]
17 | COc1ccc(S(=O)(=O)NC(C)C)cc1-n1cnnn1 | 14.4 | 0.651 µM [falling, full curve] | –
18 | CC(Oc1ccc(F)cc1Br)c1nc2ccccc2c(=O)[nH]1 (stereo not drawn) | -21.9 | – | –
19 | CC(=O)N/C(=C\c1ccc(F)cc1)C(=O)NC(Cc1ccccc1)C(=O)O (stereo not drawn) | -13.7 | – | 2.59 µM [rising, single point]
20 | C/C(=N\NC(=O)c1cccnc1)c1ccc(-n2ccnc2)cc1 | 3.42 | 0.259 µM [falling, full curve, poor fit] | –

Row | SMILES | cell number change [%] | AC50 [1] | AC50 [2]
21 | C[N+]1(CCOc2ccc([N+](=O)[O-])cc2)CCOCC1 | 5.58 | 10.3 µM [rising, single point] | –
22 | CCc1cc2ccc(C)cc2nc1SCC(=O)Nc1cc(OC)c(OC)cc1C(=O)O | 44.8 | 23.1 µM [rising, single point] | 9.2 µM [rising, partial curve]
23 | Cc1cccc(Nc2nc(NCc3ccco3)nc(N3CCOCC3)n2)c1 | -14.9 | 2.91 µM [rising, full curve] | –
24 | O=C(CCn1[nH]c(=O)c2ccccc2c1=O)N1CCOCC1 | -91.4 | 29.1 µM [rising, single point] | 16.4 µM [falling, single point]
25 | CS(=O)(=O)N1N=C(c2ccc3nccnc3c2)CC1c1ccccc1 (stereo not drawn) | 6 | – | –
26 | COc1ccc2cc3cc(C(=O)N4CCCCC4C)oc3nc2c1 (stereo not drawn) | – | 5.17 µM [rising, single point] | –
27 | CC(=O)Oc1ccc2ccccc2c1C(NC(=O)C(C)C)c1cccc([N+](=O)[O-])c1 (stereo not drawn) | – | 29.1 µM [falling, single point] | –
28 | Cc1ccc(S(=O)(=O)N2CCC(C(=O)N[C@H](C(=O)N3CCN(C)CC3)C(C)C)CC2)cc1 | -40.7 | 4.11 µM [falling, full curve] | 3.66 µM [falling, full curve]
29 | Cc1cc(=O)oc2cc(OCc3ccc(C(=O)N4CCN(c5ccccc5)CC4)cc3)ccc12 | – | 2.91 µM [rising, single point] | –
30 | O=C(/C=N/O)NCc1ccncc1 | -26.3 | 29.1 µM [falling, single point] | –
31 | CCCN(CCO)Cc1cccc(Cl)c1 | -102 | 14.6 µM [falling, partial curve] | 10.3 µM [falling, partial curve]
32 | CCc1ccc(OCC(=O)N2CC(C(N)=O)Oc3ccccc32)cc1 (stereo not drawn) | 4.17 | – | –
33 | CN(C)c1ccc(N=Nc2ccccc2C(=O)OCC(=O)N(C)C2CCCCC2)cc1 | -46.7 | 20.6 µM [falling, partial curve] | 18.4 µM [falling, single point]
34 | Cc1occc1-c1nnc(SCC(=O)N2CCOCC2)o1 | -2.08 | 0.731 µM [falling, full curve, poor fit] | –
35 | CN(C)c1ccc(-c2nc3ccccc3n2C)cc1 | -9.86 | 0.58 µM [falling, full curve, poor fit] | –
36 | CC(C)=NNc1nc(-c2ccccc2)c(C)s1 | 28.6 | 3.66 µM [rising, full curve, poor fit] | –
37 | CCc1ccc(OCC(=O)N/N=C(\C)c2ccccc2OC(F)F)cc1 | 6.61 | – | –
38 | CC1Cc2ccccc2N1C(=O)CN1CCCCC1 (stereo not drawn) | 22.9 | – | –
39 | Cc1ccc(NC(=O)CC2Oc3ccccc3NC2=O)c(C)c1 (stereo not drawn) | -13.6 | 0.326 µM [rising, full curve] | –
40 | O=C(c1cc(COc2ccccc2)on1)N1CCCC(CN2CCOCC2)C1 (stereo not drawn) | -17.3 | 6.51 µM [rising, single point] | –

Row | SMILES | cell number change [%] | AC50 [1] | AC50 [2]
41 | N#CCCN(C(=O)COC(=O)CCN=C1NS(=O)(=O)c2ccccc21)c1ccc(F)cc1 | -19.6 | 0.461 µM [falling, full curve] | –
42 | CCOc1ccc(/C=N/N2CCN(Cc3ccccc3)CC2)cc1 | -26 | – | –
43 | CSc1nc(-c2ccccc2)nc2c1COC(C)(C)C2 | -33.3 | 20.6 µM [falling, single point] | 8.2 µM [falling, partial curve]
44 | Cc1ccc(S(=O)(=O)N(C)C)cc1N | 7.98 | – | 0.731 µM [rising, single point]
45 | CCOCCn1c(=NC(=O)c2cc3ccccc3oc2=O)sc2cc(S(N)(=O)=O)ccc21 | 15.7 | 0.0291 µM [rising, full curve, poor fit] | 1.64 µM [rising, partial curve, poor fit]
46 | O=C(NCc1ccco1)c1ccc2c(=O)n(Cc3ccco3)c(SCC(=O)N3CCCC3)nc2c1 | -48.3 | 2.91 µM [rising, full curve] | 29.1 µM [falling, single point]
47 | O=C1CSC(c2ccccn2)N1c1ccc(Br)cc1 (stereo not drawn) | 9.34 | 0.164 µM [rising, full curve, poor fit] | –
48 | CCC(=O)N1CCN=C1SCc1ccccc1 | 0.0752 | 6.51 µM [rising, single point] | 6.51 µM [rising, single point]
49 | Cc1[nH]c2ccccc2c1C(=O)CSC(=S)N1CCOCC1 | – | 0.00517 µM [rising, full curve, poor fit] | 0.0206 µM [rising, full curve, poor fit]
50 | Cc1cc(=O)[nH]c(SCCOc2cccc(C(F)(F)F)c2)n1 | -32.1 | 0.00461 µM [falling, full curve, poor fit] | 25.9 µM [falling, single point]
51 | CC(=O)c1cccc(NC(=S)NC(=O)C(C)C)c1 | -3.16 | – | 0.651 µM [rising, single point]
52 | O=C(Nc1ccc(Br)cc1)c1cccc(NC(=O)C2C3CC4OC(=O)C2C4C3)c1 (stereo not drawn) | – | – | 0.461 µM [falling, single point]
53 | Cc1nn(-c2ccccc2)c(N)c1Sc1ccc([N+](=O)[O-])cc1 | -21.6 | 2.31 µM [falling, partial curve, poor fit] | –
54 | Cc1noc(NS(=O)(=O)c2ccc(NC(=O)CSc3nc4c(cc3C#N)CCCCC4)cc2)c1C | 32.6 | – | 0.231 µM [rising, full curve, poor fit]
55 | COCCSc1nnc(NC(=O)C2CCCCC2)s1 | 23.7 | – | 0.259 µM [rising, full curve, poor fit]
56 | COc1cc(C)c(Cl)cc1S(=O)(=O)N1CCCC1 | – | 2.59 µM [falling, partial curve] | 3.66 µM [falling, single point]
57 | CC1N(C)c2cc(NC(=O)c3cccs3)c(P(=O)(Nc3ccc([N+](=O)[O-])cc3)N3CCOCC3)cc2C1(C)C (stereo not drawn) | – | 29.1 µM [rising, single point] | –
58 | CCN(CC(=O)Nc1c(F)cccc1F)C(=O)CCNS(=O)(=O)c1ccccc1C(F)(F)F | 15.3 | 1.46 µM [rising, partial curve] | 0.082 µM [falling, full curve, poor fit]
59 | CCCCN(C)C(=O)c1sc2ncn(CC)c(=O)c2c1C | -40.6 | – | 32.6 µM [falling, single point]

Only AC50 [2], for two of the compounds above:
Row	SMILES	AC50 [2]
45	CCOCCn1c(=NC(=O)c2cc3ccccc3oc2=O)sc2cc(S(N)(=O)=O)ccc21	1.64 µM [rising, partial curve, poor fit]
46	O=C(NCc1ccco1)c1ccc2c(=O)n(Cc3ccco3)c(SCC(=O)N3CCCC3)nc2c1	29.1 µM [falling, single point]
